{"source": "patent US20090281090A1", "about": "“BIOMARKERS FOR THE PREDICTION OF RESPONSIVENESS TO CLOZAPINE TREATMENT” (NOVARTIS AG, priority 2004, published 2009)", "key": {"[1]": {"test_system": "patients with schizophrenia or schizoaffective disorders", "assay": "InterSePT pharmacogenetic analysis: DAT1 3'UTR VNTR polymorphism vs Type 1 event / drug response", "assay_type": "in vivo, human", "experimental": "Association between a VNTR polymorphism in the 3′UTR region of the DAT1 gene and clozapine response. The objective of this EXAMPLE was to evaluate potential association between a VNTR polymorphism in the 3′UTR region of the Dopamine Transporter 1 gene (SLC6A3; DAT1) and drug response in the patients with schizophrenia or schizoaffective disorders treated with clozapine.\nA retrospective pharmacogenetic analysis was conducted in an attempt to evaluate potential association between a variable number of tandem repeats (VNTR) polymorphism in the 3′UTR region of the DAT1 gene and drug response in the patients with schizophrenia or schizoaffective disorders treated with clozapine.\nA multicenter, randomized, two-year study comparing the risk for suicidal behaviour in patients treated with clozapine vs olanzapine had already been conducted in patients with schizophrenia or schizoaffective disorders (see above). […] See, published PCT patent application WO 2004/074513.\nGenotyping. Four hundred and two samples from the patients enrolled in the InterSePT study (see above) were collected and genotyped for the VNTR polymorphism. A total of 402 subjects enrolled in the InterSePT study consented to Pharmacogenetics study in accordance with protocols approved by local ethics committees. 15 ml of blood were collected from the patients at the trial sites. The DNA was extracted by Covance (Indianapolis, USA) using the PUREGENE™ DNA Isolation Kit (D50K) according to the manufacturer's recommendations. VNTR genotyping was performed using PCR approach as described by Kidd (Kidd Laboratory, http://info.med.yale.edu/genetics/kkidd/SLC6A3—3VNTR.html). The sense and antisense PCR primers were 5′-GGTGTAGGGAACGGCCTGAGAG-3′ (SEQ ID NO:3) and 5′-CTTCCTGGAGGTCACGGCTCAAGG-3′ (SEQ ID NO:4), respectively. Approximately 100-200 ng of genomic DNA was needed for each assay. Thirty cycles of PCR were performed with the condition of 94° C. (30″), 62° C. (30″) and 72° C. (30″). PCR products were analyzed using 2% agarose gel.\nClinical assessments. For the primary efficacy variable, time (in days, after randomization) to meeting any one of the following two criteria: (a) a significant suicide attempt; and (b) hospitalization due to imminent suicide risk. […] For secondary efficacy variables, the following were determined: (a) percentage of subjects with significant suicide attempts; (b) percentage of subjects with hospitalization due to imminent suicide risk; (c) change from baseline in the total score of the Positive and Negative Syndrome Scale (PANSS); (d) change from baseline in the Positive subtotal of PANSS; and (e) change from baseline in the Negative subtotal of PANSS.\nStatistic analysis. […] The differential effects of genotypes on the time to Type 1 event were evaluated using log rank test. […]"}, "[2]": {"test_system": "patients with schizophrenia or schizoaffective disorders", "assay": "Pharmacogenetic study: SLC6A3 Exon 9 A59G polymorphism vs time to Type 1 event", "assay_type": "in vivo, human", "conditions": "treatment group"}}, "note": "At least one compound was matched to its structure with a doubt left.", "data": [{"smiles": "CN1CCN(C2=Nc3cc(Cl)ccc3Nc3ccccc32)CC1", "note": "[Clozapine, 8-chloro-11-(4-methyl-1-piperazinyl)-5H-dibenzo[be][1,4]diazepine]", "values": [{"measurement": "association between the VNTR polymorphism and the risk of Type 1 event", "setting": "[1]; Cox proportional hazards model with covariates age, gender, substance abuse, lifetime suicide attempts", "value": "remained significant"}, {"measurement": "response to treatment measured by psychotic assessments including positive and negative syndrome scale (PANSS)", "setting": "[1]; comparison between VNTR genotype groups", "value": "no significant differences between genotype groups"}, {"measurement": "association between the VNTR polymorphism and the time to Type 1 event", "setting": "[1]; log rank test, three genotype groups, Caucasian subpopulation and whole population", "value": "significant association"}, {"measurement": "association between the VNTR polymorphism and response measured by Type 1 event, disease-based subpopulation analysis", "setting": "[1]; subjects with schizophrenia vs schizoaffective disorder", "value": "only existed in subjects with schizophrenia"}, {"measurement": "association between synonymous polymorphism on exon 9 of SLC6A3 and the time to Type 1 event", "setting": "[2]", "value": "significant association"}]}]}
